{
  "source": "paper doi:10.1101/2024.10.29.620780",
  "biological_target": "T1, StrepII-AtPAD4 (Arabidopsis) (UniProt Q9S745)",
  "T1 sequence": "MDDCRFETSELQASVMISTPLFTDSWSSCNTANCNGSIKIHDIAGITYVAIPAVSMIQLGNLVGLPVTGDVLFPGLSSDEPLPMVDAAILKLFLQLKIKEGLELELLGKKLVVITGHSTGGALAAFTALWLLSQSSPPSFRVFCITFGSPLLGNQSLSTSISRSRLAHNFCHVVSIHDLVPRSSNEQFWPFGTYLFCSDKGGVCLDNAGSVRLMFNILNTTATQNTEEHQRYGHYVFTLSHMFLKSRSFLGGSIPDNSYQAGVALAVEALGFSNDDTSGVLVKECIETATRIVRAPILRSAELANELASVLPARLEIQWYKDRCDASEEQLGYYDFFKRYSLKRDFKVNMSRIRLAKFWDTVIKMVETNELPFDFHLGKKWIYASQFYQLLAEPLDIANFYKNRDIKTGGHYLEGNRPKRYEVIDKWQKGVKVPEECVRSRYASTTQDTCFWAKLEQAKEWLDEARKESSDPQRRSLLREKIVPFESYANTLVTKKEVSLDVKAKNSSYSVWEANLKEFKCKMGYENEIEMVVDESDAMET",
  "assay": "cryo-EM structure",
  "note": "Results are given in words; binding and its absence hold for the method and conditions named. Some entries that bind do so weakly or less than the wild type.",
  "data": [
    {"binder": "StrepII-AtEDS1 (protein, UniProt Q9SU72 1-623) MAFEALTGINGDLITRSWSASKQAYLTERYHKEEAGAVVIFAFQPSFSEKDFFDPDNKSSFGEIKLNRVQFPCMRKIGKGDVATVNEAFLKNLEAIIDPRTSFQASVEMAVRSRKQIVFTGHSSGGATAILATVWYLEKYFIRNPNVYLEPRCVTFGAPLVGDSIFSHALGREKWSRFFVNFVSRFDIVPRIMLARKASVEETLPHVLAQLDPRKSSVQESEQRITEFYTRVMRDTSTVANQAVCELTGSAEAFLETLSSFLELSPYRPAGTFVFSTEKRLVAVNNSDAILQMLFYTSQASDEQEWSLIPFRSIRDHHSYEELVQSMGKKLFNHLDGENSIESTLNDLGVSTRGRQYVQAALEEEKKRVENQKKIIQVIEQERFLKKLAWIEDEYKPKCQAHKNGYYDSFKVSNEENDFKANVKRAELAGVFDEVLGLMKKCQLPDEFEGDIDWIKLATRYRRLVEPLDIANYHRHLKNEDTGPYMKRGRPTRYIYAQRGYEHYILKPNGMIAEDVFWNKVNGLNLGLQLEEIQETLKNSGSECGSCFWAEVEELKGKPYEEVEVRVKTLEGMLGEWITDGEVDDKEIFLEGSTFRKWWITLPKNHKSHSPLRDYMMDEITDT", "values": [
      {"measurement": "binding", "result": "binds"}
    ]}
  ]
}
